Source: PubChem BioAssay AID504786 (Drosophila RNAi Screening Center, 2011)

- Purpose: 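Fly genes required for HIF-dependent transcription when hypoxia is mimicked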 (primary screen)
- System: Drosophila S2 cells with a stable HIF luciferase reporter
- Knock-down reagent: long dsRNA against Drosophila genes, about 0.2 µg dsRNA per well of a 384-well plate
- Duration: three days of knock-down, then 20 h of DFO before reading
- Treatment: desferrioxamine (DFO) at 100 µM, an iron chelator that mimics hypoxia, for 20 h
- Read-out: 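HIF reporter luminescence in cells given 100 µM DFO for 20 h, using the mouse ldh-a hypoxia-response element, scored as per-plate z-scores; higher means greater loss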
- Scale: z-score: higher = stronger loss of HIF reporter signal
The screen tested about 21,000 reagents; this is an unselected part of those that have a named target and a result. 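Primary screen; positive scores mean lost reporter signal, so the sign may be inverted from the usual convention.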 A plus sign joins genes that one reagent is predicted to hit. No sequences are given here.

| gene | DRSC id | z-score, replicate 1 | z-score, replicate 2 | z-score, replicate 3 | z-score, replicate 4 |
| --- | --- | --- | --- | --- | --- |
| CG9702 | DRSC16540 | -0.3 | -0.6 | – | – |
| ari-1 (ariadne 1) | DRSC20308 | -0.3 | -0.6 | – | – |
| CG2291 | DRSC06836 | -0.3 | -0.3 | – | – |
| CG31525 | DRSC12004 | -0.3 | 0.6 | – | – |
| Hydr2 (alpha/beta hydrolase2) | DRSC00607 | -0.3 | -1 | – | – |
| CG11300 | DRSC04104 | -0.1 | 0.1 | – | – |
| kri (krishah) | DRSC10515 | -0.2 | 0.3 | – | – |
| CG8838 | DRSC00712 | -0.2 | -0.3 | – | – |
| CG4896 | DRSC00671 | -0.3 | -0.3 | – | – |
| CG33012 | DRSC06287 | -0.2 | 0 | – | – |
| CG33012 | DRSC06288 | -0.4 | -0.2 | – | – |
| Vps25 (Vacuolar protein sorting 25) | DRSC06486 | -0.3 | -0.1 | – | – |
| CG32066 | DRSC10652 | -0.4 | -0.5 | – | – |
| CG32066 | DRSC10653 | -0.4 | -0.7 | – | – |
| E2f1 (E2F transcription factor 1) | DRSC16655 | 2.9 | 4.1 | – | – |
| Mid1 | DRSC04230 | -0.3 | -0.9 | 0.9 | -0.1 |
| Mid1 | DRSC04231 | -0.2 | -0.3 | – | – |
| Mid1 | DRSC04308 | -0.3 | -0.4 | – | – |
| CG12920 | DRSC06234 | -0.3 | -0.2 | – | – |
| CG1999 | DRSC18199 | -0.3 | -0.1 | – | – |
| Rcc1 (Regulator of chromosome condensation 1) | DRSC09684 | -0.3 | -0.2 | – | – |
| CG12865 (retired record) | DRSC06205 | -0.2 | -0.5 | – | – |
| CG3611 | DRSC04395 | 0.1 | -0.1 | – | – |
| CG13108 | DRSC02206 | -0.3 | -0.3 | – | – |
| Vps24 (Vacuolar protein sorting 24) | DRSC12332 | -0.3 | -0.4 | 0.1 | -0.1 |
| Zasp52 (Z band alternatively spliced PDZ-motif protein 52) | DRSC06269 | 1 | 0.3 | – | – |
| Zasp52 (Z band alternatively spliced PDZ-motif protein 52) | DRSC07121 | -0.1 | -0.1 | – | – |
| CG9313 | DRSC04540 | 0.1 | -0.1 | – | – |
| Rcd4 (Reduction in Cnn dots 4) | DRSC02597 | -0.4 | 0 | – | – |
| Pus10 (Pseudouridine synthase 10) | DRSC00629 | -0.1 | 0.3 | – | – |
| CG12853 | DRSC06193 | -0.6 | -0.4 | – | – |
| BBS9 (Bardet-Biedl syndrome 9) | DRSC04257 | -0.3 | -0.3 | – | – |
| Tsp74F (Tetraspanin 74F) | DRSC10508 | -0.3 | -0.3 | – | – |
| CG6985 | DRSC16164 | -0.3 | -0.6 | – | – |
| Cyp40 (Cyclophilin 40) | DRSC10980 | -0.3 | -0.2 | – | – |
| Pvf1 (PDGF- and VEGF-related factor 1) | DRSC20024 | -0.3 | -0.2 | – | – |
| Vha68-3 (Vacuolar H[+] ATPase 68kD subunit 3) | DRSC02809 | -0.4 | -0.5 | – | – |
| Dnaaf5 (Dynein axonemal assembly factor 5) | DRSC13032 | 0.5 | -0.2 | – | – |
| CG32461 | DRSC11594 | -0.7 | -1 | – | – |
| Ptpmeg2 (Protein tyrosine phosphatase Meg2) | DRSC18277 | -0.4 | -0.7 | – | – |
| Ptpmeg2 (Protein tyrosine phosphatase Meg2) | DRSC18278 | -0.3 | -0.6 | – | – |
| nrv3 (nervana 3) | DRSC03097 | 0.3 | -0.4 | – | – |
| Sgt1 (suppressor-of-G2-allele-of-skp1) | DRSC16519 | 0 | 0.9 | – | – |
| tsg (twisted gastrulation) | DRSC20380 | -0.3 | -0.8 | – | – |
| CG10845 | DRSC14272 | -0.2 | -0.7 | – | – |
| CG11696 | DRSC19417 | 0.1 | -0.3 | – | – |
| CG14275 | DRSC02379 | -0.3 | -0.8 | – | – |
| robl (roadblock) | DRSC07674 | -0.4 | -0.3 | – | – |
| SPE (Spatzle-Processing Enzyme) | DRSC15135 | -0.2 | -0.7 | – | – |
| amd (alpha methyl dopa-resistant) | DRSC02608 | -0.3 | -0.6 | – | – |
| amd (alpha methyl dopa-resistant) | DRSC03483 | -0.2 | -0.6 | – | – |
| opa (odd paired) | DRSC12384 | -0.1 | -0.1 | – | – |
| Or83c (Odorant receptor 83c) | DRSC12359 | -0.2 | -0.6 | – | – |
| Diedel | DRSC14317 | -0.2 | -0.2 | – | – |
| Gel (Gelsolin) | DRSC12350 | -0.3 | -0.1 | – | – |
| Coq4 + frc | DRSC10381 | 0.1 | -0.3 | – | – |
| Coq4 + frc | DRSC10382 | -0.1 | -0.1 | – | – |
| CheA84a (Chemosensory protein A 84a) | DRSC12669 | 0 | 0 | – | – |
| Sgs7 (Salivary gland secretion 7) | DRSC11281 | -0.3 | 1.2 | – | – |
| Jabba | DRSC06521 | 0 | 0.1 | – | – |
| CG4119 | DRSC17741 | 1.3 | 1.9 | – | – |
| NKAIN (Na,K-ATPase Interacting) | DRSC04531 | -0.1 | 0.1 | – | – |
| CG12107 | DRSC06102 | -0.4 | -0.4 | – | – |
| Mettl3 (Methyltransferase like 3) | DRSC15921 | -0.2 | -0.5 | – | – |
| CG42579 | DRSC20391 | -0.5 | -0.3 | – | – |
| CG8135 + BBIP1 | DRSC12739 | -0.5 | -1.1 | – | – |
| CG8135 + BBIP1 | DRSC16384 | -0.3 | -0.4 | – | – |
| rdhB (retinol dehydrogenase B) | DRSC16190 | -0.3 | 1.7 | – | – |
| dpr9 (defective proboscis extension response 9) | DRSC14534 | -0.4 | -0.2 | – | – |
| dpr9 (defective proboscis extension response 9) | DRSC14985 | -0.2 | -0.2 | – | – |
| dpr9 (defective proboscis extension response 9) | DRSC14986 | -0.7 | -0.2 | – | – |
| CG5913 | DRSC15916 | 0 | -0.4 | – | – |
| Mur89F (Mucin related 89F) | DRSC15544 | -0.3 | -0.7 | – | – |
| PK2-R1 (Pyrokinin 2 receptor 1) | DRSC16447 | -0.4 | -0.2 | – | – |
| CG13445 | DRSC09992 | 0.3 | -0.2 | – | – |
| Wnt4 (Wnt oncogene analog 4) | DRSC00976 | -0.7 | 0.1 | – | – |
| Wnt4 (Wnt oncogene analog 4) | DRSC03477 | -0.2 | 0 | – | – |
| m (miniature) | DRSC20181 | 1.6 | -0.2 | – | – |
| Pms2 | DRSC07511 | -0.2 | -0.1 | – | – |
| CG4364 | DRSC02742 | -0.4 | 0.5 | – | – |
| CG14257 | DRSC14752 | -0.3 | -0.5 | – | – |
| Gr28b (Gustatory receptor 28b) | DRSC02291 | -0.3 | -0.2 | – | – |
| Gr28b (Gustatory receptor 28b) | DRSC02292 | -0.1 | -0.4 | – | – |
